# Entries after “also recorded” stand apart in the source; their conditions may differ.
# Experiments:
# [1] = ability of detergents, buffers, solvents and additives to dissolve food matrices (matrix lysis development)
# [2] = test system: prfA gene of L. monocytogenes (real-time PCR); assay: inhibitory effects of detergents on real-time PCR; type: biochemical; settings: 0.1 M and 0.05 M urea
# Method: For experiments analysing the effects of food matrices and detergents contained in the matrix lysis buffer on real-time PCR, food matrices were mixed with equal amounts of ddH2O, stomachered for 3 minutes, diluted in a 10-fold dilution series (10^−1, 10^−2 and 10^−3) and 5 μl directly subjected to the real time PCR samples. An aliquot was cooked 15 min at 100° C. for comparison prior to subjection of 5 μl to real-time PCR. Detergents were diluted in 2-fold dilution series (0.4 M-0.05 M Urea and 0.8%-0.005% SDS) and 5 μl were subjected to the real-time PCR samples.
# Real-time PCR was performed in an Mx3000p real-time PCR thermocycler (Stratagene, USA). The 25 μl volume contained 20 mM Tris-HCl, 50 mM KCl, 3.5 mM MgCl2. 500 nM of each primer, 250 nM of each probe, 200 μM (each) of dATP, dTTP, dGTP and dCTP, 1.5 U of Platinum Taq DNA polymerase (Invitrogen, Austria), 25 copies of the IAC and […]. Amplification following initial denaturation at 94° C. for 2 min was performed in 45 cycles, at each 94° C. for 15 s and 64° C. for 1 minute.
structure (smiles),measurement,setting,value
"Cl.N=C(N)N [8 M Guanidine, guanidine hydrochloride]",performance in lysing food matrices,[1]; combined with detergents,even better performance
same,performance in lysing food matrices,[1]; used alone,good performance
"NC(N)=O [8 M Urea, urea]",Ct value,"[2]; 15.5 copies, 32.9 without urea",32.9 (RSD: 2.6%)
same,Ct value,"[2]; 0.2 M, 1,550 copies, 26.3 without urea",26.1 (RSD: 0.94%)
"C[C@H](CCC(=O)NCCC[N+](C)(C)CCCS(=O)(=O)[O-])[C@H]1CC[C@H]2[C@@H]3[C@H](O)C[C@@H]4C[C@H](O)CC[C@]4(C)[C@H]3C[C@H](O)[C@]12C [CHAPS, 3-[(3-cholamidopropyl)dimethylammonio]-1-propanesulfonate]",lysis of food matrices,[1]; in combination with 8 M Urea or 8 M Guanidine,good performance; also recorded: worked well
same,lysis of food matrices,[1]; used individually,insufficient lysis

# From patent publication US9328326B2, “Method for isolating cells” (MERCK PATENT GMBH, priority 2006, dated 2016)
